# Results: PubChem BioAssay AID2685 (National Center for Advancing Translational Sciences (NCATS), 2010)
# The campaign covered roughly 320,000 compounds. About 2,100 (0.66%) were called active. Inconclusive means that the source gave no clear call. Such entries were picked first, then a sample of the others. The call rests on the fitted dose curve; in most records, active means well fitted inhibition curve with a large enough effect in the signal ratio, with a control signal flat (not every such curve was filed as active); inconclusive means small, poorly fitted or top-dose-only effect, or effect the other way, or a change in a side signal; inactive means flat fitted curve, though single readings scatter; the % refers to the signal ratio. Potencies beside an inconclusive call are fits to weak or partial responses and may not hold up.
# Assay: qHTS Assay for Lipid Storage Modulators in Drosophila S3 Cells
# Conditions: BODIPY lipid droplet fluorescence, 18-24 h, cells fed with added oleic acid; lipid storage change, negative = inhibition: at 46.1 µM (top of the series) unless noted
# Procedure, shortened: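 Drosophila S3 cells got compounds at several concentrations plus oleic acid (400 uM solution). Laser-scanning cytometry with 488 nm excitation read lipid droplets at 500-530 nm and cells at 575-640 nm. Percent activity was relative to 20 uM Triacsin C.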
# On the % scale 0 is the no-effect control and ±100 the full control effect; potency means the concentration at half of the fitted maximal effect.
SMILES,"lipid storage change, negative = inhibition",Potency
CCCC(=O)n1nc(NCc2ccc(OC)cc2)nc1NCc1ccc(OC)cc1,inconclusive: -58.8% [cytotoxic] [at 0.00295 µM],
O=C(Nc1cccnc1Cl)c1cc(-c2ccc(F)cc2)on1,,"inconclusive: 2310 nM [activator, partial curve]"
Cc1nn(CC#N)c(=O)n1N(C)c1ncc(C(F)(F)F)cc1Cl,inconclusive: -6.37%,
COc1ccc2c(C)cc(N3CCOCC3)nc2c1,,active: 4610 nM
O=c1c2ccccc2nc(/C=C/c2ccccc2)n1CCCO,,"inconclusive: 580 nM [activator, single point]"
CCc1ccc(OCC(=O)NC(NC(=S)Nc2ccccc2)C(Cl)(Cl)Cl)cc1 (centres undefined),inconclusive: -37.6%,
COc1cc(/C=C2\SC(=Nc3ccccc3)NC2=O)cc(Cl)c1O,inconclusive: -132%,
C[C@]1(CO)CCC[C@@]2(C)C1CC[C@@H](CO)[C@@H]2CCc1ccoc1 (some centres undefined),inconclusive: -34.8%,
COc1ccc(OC)c(S(=O)(=O)N2CCN(C34CC5CC(CC(C5)C3)C4)CC2)c1,inconclusive: 29.4%,
Fc1ccccc1CSc1nc2ncccc2[nH]1,inconclusive: 63%,
Nc1ccc2nc(SCc3ccc([N+](=O)[O-])cc3)sc2c1,inconclusive: 13.7%,
CCCc1nnc(NC(=O)CSc2nnc(-c3ccco3)n2C)s1,inconclusive: 485%,
Cc1cccc2sc(NNC(=O)c3cc(=O)c4ccccc4o3)nc12,inconclusive: -40.6%,
O=C(Cn1[nH]c(=O)c2ccccc2c1=O)NC1CCN(Cc2ccccc2)CC1,inconclusive: -15.5%,
O=C(CSc1nnc(C2CC2)n1Cc1ccccc1)NCc1ccccc1,inconclusive: 4.28%,
CN1CCN(C(=O)c2cccc(S(=O)(=O)N3CCCC3)c2)CC1,,"inconclusive: 651 nM [cytotoxic, partial curve, poor fit]"
COc1ccc(C(=O)Nc2ccccc2NC(=O)c2ccco2)c(OC)c1,inconclusive: 13.8%,
Cc1ccc(N(Cc2ccccc2)C(=O)c2cc(S(=O)(=O)N3CCOCC3)ccc2N2CCCC2)cc1,inconclusive: 37.3%,
COC(=O)c1cc(OC)c(OC)cc1NC(=S)N1CCN(C/C=C/c2ccccc2)CC1,inconclusive: 26.7%,
COc1ccc(Cl)cc1NC(=O)CN(C)C(=O)Cn1[nH]c(=O)c2ccccc2c1=O,inconclusive: -18.3%,
CNC(=O)NC(=O)CSc1nnc(C(F)(F)F)n1C,,"inconclusive: 1160 nM [falling, partial curve]"
NC(=O)c1cccc([N+](=O)[O-])c1,,"inconclusive: 4.1 nM [activator, full curve, poor fit]"
Cn1cccc1CC(=O)NNC(=O)Nc1cccc(Cl)c1,inconclusive: 8.51%,
O=C(CCc1ccccc1)N1CCN(c2ccc(Cl)cc2)CC1,inconclusive: 15.5%,
O=C1CCN(S(=O)(=O)c2ccccc2)CCN1CCOCc1ccc(C(F)(F)F)cc1,inconclusive: -1.82%,

SMILES,"lipid storage change, negative = inhibition",Potency
Cc1ccc(C(=O)Nc2cccc(C(F)(F)F)c2)cc1Nc1cnccn1,inconclusive: -17.2%,
O=C(/C=C/Nc1ccccc1Oc1ccccc1)c1ccco1,inconclusive: -86.3% [cytotoxic],
Cc1ccccc1-n1c(C)cc(/C=N/NC(=O)c2ccncc2)c1C,inconclusive: 26.8%,
O=C(N/N=C/C(Br)=C\c1ccccc1)c1n[nH]c2c1CCC2,inconclusive: 295%,
CCN(CCC(=O)O)c1ccccc1,,"inconclusive: 29100 nM [falling, single point]"
Cc1cc(C(=O)CSc2ccc(Cl)cc2)cc(C)c1OC(=S)N(C)C,inconclusive: -1.07%,
COc1ccc(CNC(=O)CC23CC4CC(CC(C4)C2)C3)cc1,,"inconclusive: 6510 nM [activator, single point]"
CCCC(=O)N1CCN(c2ccc(NC(=O)c3sc4ccccc4c3Cl)cc2)CC1,inconclusive: 6.77%,
Cc1cc(-c2ccccc2)[nH]c(=O)c1S(=O)(=O)c1ccccc1,inconclusive: 15.2%,
Cc1c(Br)c([N+](=O)[O-])nn1CC(=O)N1CCc2ccccc2C1,inconclusive: 23.2%,
COc1ccc(CN2CCNC(=O)C2CC(=O)NC2CCCC2)c(OC)c1 (centres undefined),inconclusive: -16.6%,
COc1ccc(C2C(C#N)=C(N)N(N(C)C)C3=C2C(=O)CCC3)cc1 (centres undefined),inconclusive: 249%,
COc1ccc(C)cc1NC(=O)c1sc2ncnc(N3CCN(c4ccccn4)CC3)c2c1C,,"inconclusive: 6510 nM [falling, single point]"
COc1ccc2[nH]c(N=Nc3ccccc3C)c(O)c2c1,inconclusive: 22.5%,
COc1ccc(CNC(=O)c2ccc3c(c2)N(C)CCS3)cc1,,"inconclusive: 3660 nM [activator, full curve, poor fit]"
O=C(Nc1ccc2nc3n(c(=O)c2c1)CCCCC3)c1ccccc1Cl,,"inconclusive: 29100 nM [cytotoxic, single point]"
CCOC(=O)c1sc(=NC(=O)c2ccc(C)cc2)n(C)c1C,,"inconclusive: 461 nM [falling, full curve, poor fit]"
Cc1ccc(NC(=S)N2CCC(NC(=O)c3cccc(F)c3)CC2)cc1,,"inconclusive: 103 nM [falling, full curve, poor fit]"
CCCCCOc1ccc(C2C(C(C)=O)=C(C)Nc3ncnn32)cc1OC (centres undefined),,"inconclusive: 164 nM [falling, partial curve, poor fit]"
COc1ccc(Cl)cc1NC(=O)COC(=O)CNC(=O)c1ccc([N+](=O)[O-])c(C)c1,inactive,
Cc1nn(-c2cc(N3CCOCC3)ccc2[N+](=O)[O-])c(=O)c2ccccc12,,"inconclusive: 4.6 nM [falling, full curve, poor fit]"
COc1ccc(CNS(=O)(=O)c2ccc(S(=O)(=O)NC3CC3)cc2)cc1,inconclusive: 2.12%,
O=C(NCCNc1ccc2ccccc2c1)c1cccn2c(=O)c3sccc3nc12,inconclusive: -25.1%,
Cc1nn(-c2ccccc2)c2nc(-c3ccccc3)cc(C(=O)N3CCOCC3)c12,inconclusive: -3.76%,

# 11 of these compounds, reformatted:
SMILES	lipid storage change, negative = inhibition	Potency
Cc1ccc(C(=O)Nc2cccc(C(F)(F)F)c2)cc1Nc1cnccn1	inconclusive: -17.2%	
Cc1ccccc1-n1c(C)cc(/C=N/NC(=O)c2ccncc2)c1C	inconclusive: 26.8%	
O=C(N/N=C/C(Br)=C\c1ccccc1)c1n[nH]c2c1CCC2	inconclusive: 295%	
CCN(CCC(=O)O)c1ccccc1		inconclusive: 29100 nM [falling, single point]
Cc1cc(C(=O)CSc2ccc(Cl)cc2)cc(C)c1OC(=S)N(C)C	inconclusive: -1.07%	
Cc1c(Br)c([N+](=O)[O-])nn1CC(=O)N1CCc2ccccc2C1	inconclusive: 23.2%	
COc1ccc(C)cc1NC(=O)c1sc2ncnc(N3CCN(c4ccccn4)CC3)c2c1C		inconclusive: 6510 nM [falling, single point]
COc1ccc2[nH]c(N=Nc3ccccc3C)c(O)c2c1	inconclusive: 22.5%	
O=C(Nc1ccc2nc3n(c(=O)c2c1)CCCCC3)c1ccccc1Cl		inconclusive: 29100 nM [cytotoxic, single point]
CCOC(=O)c1sc(=NC(=O)c2ccc(C)cc2)n(C)c1C		inconclusive: 461 nM [falling, full curve, poor fit]
COc1ccc(Cl)cc1NC(=O)COC(=O)CNC(=O)c1ccc([N+](=O)[O-])c(C)c1	inactive	
